Test results from PubChem BioAssay AID445 (National Center for Advancing Translational Sciences (NCATS), 2006).
The list shows a part of the results. The main result of the screen is listed elsewhere. These columns were measured beside it and carry no call. Most of these compounds were active or inconclusive in the main read-out, so they are no random draw. The note in brackets gives the kind of curve behind each potency; many fits are weak.

test: IkB Signaling; conditions: ABC-DLBCL IkBa-CBG/CBR dual luciferase ratio (green luciferase fused to IkBa over red control in OCI-Ly3 lymphoma cells), 4 h; measured here: control luc red channel unless noted
Summary of the method: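 In this assay, an IκBα–CBG68 fusion accumulates when IKK-driven degradation is blocked; native CBR normalizes for cell number. OCI-Ly3 cells were treated 4 h with compound and doxycycline, then green and red light read after Chroma-Glo addition.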

Which AC50 does the source give for CCN(CCCNC(=O)c1cc2c(=O)n(CC)c3ccccc3c2s1)Cc1ccccc1 here?
The AC50 was 20 µM [falling, partial curve].

Which AC50 does the source give for CCOC(=O)N1CCN(Cc2nc3cc(NC(=O)c4ccccc4Cl)ccc3n2C(C)C)CC1 here?
The AC50 was 2.51 µM [rising, partial curve].

Which AC50 does the source give for C=C(C)COc1ccc(-c2[nH]ncc2Oc2ccccc2OCC)c(O)c1 here?
Its AC50 is 39.8 µM [falling, single point].

Which AC50 does the source give for O=C(Nc1ccc(S(=O)(=O)N2CCCCCC2)cc1)c1ccc(Br)o1 here?
The AC50 was 20 µM [falling, partial curve].

For CCOC(=O)c1ccc(NC(=O)N2CC3CCCN3c3ccccc32)cc1 (stereo not given), which AC50 is on record?
Its AC50 is 31.6 µM [falling, partial curve].

For COc1ccc2nc(NC(=O)C3CCCN(S(=O)(=O)c4cccc5nonc45)C3)sc2c1 (stereo not given), which AC50 is on record?
The AC50 was 2.51 µM [falling, full curve].

For Cc1ccc2nc(-c3cccs3)c(Nc3ccc4c(c3)OCCO4)n2c1, which AC50 is on record?
Its AC50 is 31.6 µM [falling, single point].

Which AC50 does the source give for O=C(Cn1cc(S(=O)(=O)N2CCCC2)c(S(=O)(=O)N2CCCC2)c1)Nc1ccc(F)cc1 here?
Its AC50 is 3.98 µM [rising, single point].

Which AC50 does the source give for CC1=CC2=C(OC1N(C)C)c1cccc3cccc(c13)C2=O (stereo not given) here?
The AC50 was 25.1 µM [falling, partial curve].

For CCOC(=O)c1c(NC(=O)CSc2nnc(CNc3ccc(F)cc3)o2)sc(C(C)=O)c1C, which AC50 is on record?
The AC50 was 10 µM [falling, partial curve].

For O=C(Cn1cc(C(=O)c2ccco2)c2ccccc21)Nc1ccccc1, which AC50 is on record?
Its AC50 is 12.6 µM [falling, partial curve].

With CCOc1ccc(NC(=O)c2ccc(F)c(S(=O)(=O)N(Cc3ccc(C(=O)OC)cc3)Cc3ccc(OC)c(OC)c3)c2)cc1 as the molecule, how does the AC50 read?
Its AC50 is 12.6 µM [falling, partial curve].

Which AC50 does the source give for CCOc1cc(C2C(C#N)=C(N)OC(C)=C2C(C)=O)cc(Br)c1O (stereo not given) here?
The AC50 was 25.1 µM [falling, partial curve].

For CC1CCc2nc(NC(=O)Cc3cccs3)sc2C1 (stereo not given), which AC50 is on record?
Its AC50 is 15.8 µM [falling, partial curve].

With CCc1ccc(NS(=O)(=O)c2ccc3[nH]cc(C(=O)NCc4ccc(C)cc4)c(=O)c3c2)cc1 as the molecule, how does the AC50 read?
The AC50 was 10 µM [falling, partial curve].

With CCOc1ccc(-n2c(=O)c3c4c(sc3n(Cc3cccc(C)c3)c2=O)CCCC4)cc1 as the molecule, how does the AC50 read?
The AC50 was 5.01 µM [falling, full curve, poor fit].

Which AC50 does the source give for COC(=O)CSc1nc2ccc(NC(C)=O)cc2s1 here?
Its AC50 is 15.8 µM [falling, partial curve].

For CCOC(=O)C1CCCN(C(=O)c2cc3c(-c4cccc(OC)c4)nn(C)c3s2)C1 (stereo not given), which AC50 is on record?
Its AC50 is 31.6 µM [falling, partial curve].

With COc1ccc(OC)c(NC(=O)c2c(NCc3ccc(OC)c(OC)c3)sc3c2CCC3)c1 as the molecule, how does the AC50 read?
The AC50 was 5.01 µM [falling, partial curve].

For O=C(Nc1ccc(Br)cc1F)C(NS(=O)(=O)c1cccc2nsnc12)c1ccccc1 (stereo not given), which AC50 is on record?
Its AC50 is 12.6 µM [falling, partial curve].

With Cc1csc2nc(CSc3ccc(Cl)cc3)cn12 as the molecule, how does the AC50 read?
Its AC50 is 12.6 µM [falling, partial curve].

Which AC50 does the source give for COc1ccc(CNC(=O)c2cc3c(-c4ccccc4F)nn(C)c3s2)cc1 here?
Its AC50 is 6.31 µM [falling, partial curve].

With COc1ccc2nc3sc(C(=O)NCc4cccs4)c(N)c3cc2c1 as the molecule, how does the AC50 read?
The AC50 was 3.98 µM [falling, partial curve].

With CC/C(=C(/CC)c1ccc(O)cc1)c1ccc(O)cc1 as the molecule, how does the AC50 read?
The AC50 was 15.8 µM [rising, partial curve] [measured here: IkB-luc green channel].

For Cc1nc2ccccc2c2oc(C(=O)NCC3CCCO3)cc12 (stereo not given), which AC50 is on record?
The AC50 was 31.6 µM [falling, partial curve].

With CCN(CC)C(=O)c1cnn(-c2ccc(F)cc2)c1-n1cccc1 as the molecule, how does the AC50 read?
Its AC50 is 25.1 µM [falling, single point].

Which AC50 does the source give for Cc1ccc(CNC(=O)c2oc3ccc(S(=O)(=O)N4CCC5(CC4)OCCO5)cc3c2C)cc1 here?
Its AC50 is 3.16 µM [falling, full curve].

With CCNC(=O)c1c(C)oc2ncn(C)c(=O)c12 as the molecule, how does the AC50 read?
The AC50 was 39.8 µM [falling, single point].

For Cc1nn(CCCC(=O)Nc2cc(C(F)(F)F)ccc2Cl)c(=O)c2c1sc1ccccc12, which AC50 is on record?
Its AC50 is 0.01 µM [rising, full curve, poor fit].

With Cc1ccc(N2CCN(C(=O)c3ccccc3Br)CC2)c(C)c1 as the molecule, how does the AC50 read?
Its AC50 is 7.94 µM [falling, partial curve].

With Cc1ccc2c(c1)cc1c(=O)n(Cc3ccc(Cl)cc3)nc(C)n12 as the molecule, how does the AC50 read?
The AC50 was 6.31 µM [falling, partial curve].

For COc1cccc(-c2cc(C(=O)Nc3ccc(Br)c(C)c3)[nH]n2)c1, which AC50 is on record?
Its AC50 is 1.26 µM [falling, partial curve].

For COc1ccc(CN(Cc2ccco2)C(=O)c2ccccc2F)cc1, which AC50 is on record?
Its AC50 is 20 µM [falling, single point].

With Cc1cccc(C)c1NS(=O)(=O)c1ccc2c(c1)[C@H]1C=CC[C@H]1[C@@H](c1ccc(Cl)cc1)N2 as the molecule, how does the AC50 read?
Its AC50 is 25.1 µM [falling, partial curve].

With CCn1c(CC2C(=O)Nc3ccccc32)nc2ccccc2c1=O (stereo not given) as the molecule, how does the AC50 read?
Its AC50 is 39.8 µM [falling, single point].

For CCc1cc2c(N3CCCCC3)ncnc2s1, which AC50 is on record?
The AC50 was 31.6 µM [falling, single point].

Which AC50 does the source give for Cc1ccccc1Cn1c2ccccc2c2cnn(CC(=O)NCCCc3ccccc3)c(=O)c21 here?
The AC50 was 15.8 µM [falling, partial curve].

Which AC50 does the source give for COc1ccc2c(c1)c1c(c(=O)n(-c3ccc(F)c(Cl)c3)c(=O)n1CC(N)=O)n2C here?
The AC50 was 0.0794 µM [rising, partial curve, poor fit].

With COc1ccccc1CNC(=O)CSc1cc(=O)n(C)c2ccccc12 as the molecule, how does the AC50 read?
The AC50 was 12.6 µM [falling, partial curve].

With Cn1nc(C(=O)N2CCN(c3ccc(Cl)cc3)CC2)c2c1-c1ccccc1S(=O)(=O)C2 as the molecule, how does the AC50 read?
Its AC50 is 12.6 µM [falling, partial curve].
